The list shows only some results of the screen, not a fair sample: it is rich in T/C values a quarter to a half above the control, in often repeated tests (any T/C) and in doses without a T/C. Other doses and runs of a compound stand elsewhere. T/C gives the treated animals as a percentage of the vehicle group. Some doses have a count of surviving animals in place of a T/C: the source holds a T/C of zero for them, seemingly a mark for toxic or unscored doses. Some survivor counts are full or nearly so, which does not show that the dose was tolerated: the source hardly ever lists a survival T/C far under the control, and the zero likely stands for such cases as well. Counts of survivors are from the toxicity check (mostly the fifth day) where no day follows; animals may have died later. Schedules are NCI's codes, read here as Q, the interval in days (D) or hours (H), X, the number of doses. Some entries were tested several times; their values stand side by side, smallest first. For survival time, this PubChem deposit counts one and a half times the control or more as active, and values a quarter to a half above the control carry no call in these data; other NCI protocols may use other cut-offs.
Test system: CD2F1 mice, L1210 leukemia ip, survival T/C
Experiment: NCI In Vivo Anticancer Drug Screen. Data for tumor model L1210 Leukemia (intraperitoneal) in CD2F1 (CDF1) mice
Conditions: higher T/C = longer survival
How it was run: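 Vehicle-treated tumor-bearing mice served as controls (C) for compound-treated mice (T). Reported figure is T divided by C.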

[1] = T/C endpoint: mean survival time, dose: 400.0 mg/kg/injection, schedule: Q04DX003 (ip), vehicle: acetone
[2] = T/C endpoint: mean survival time, dose: 50.0 mg/kg/injection, schedule: Q01DX009 (ip), vehicle: Klucel (hydroxypropylcellulose) (HPC)
[3] = T/C endpoint: mean survival time, dose: 100.0 mg/kg/injection, schedule: Q01DX009 (ip), vehicle: Klucel (hydroxypropylcellulose) (HPC)
[4] = T/C endpoint: mean survival time, dose: 200.0 mg/kg/injection, schedule: Q01DX009 (ip), vehicle: Klucel (hydroxypropylcellulose) (HPC)
[5] = T/C endpoint: mean survival time, dose: 100.0 mg/kg/injection, schedule: Q01DX001 (ip), vehicle: saline with Tween-80
[6] = T/C endpoint: mean survival time, dose: 400.0 mg/kg/injection, schedule: Q01DX001 (ip), vehicle: saline with Tween-80
[7] = T/C endpoint: mean survival time, dose: 100.0 mg/kg/injection, schedule: Q01DX005 (ip), vehicle: water
[8] = T/C endpoint: mean survival time, dose: 200.0 mg/kg/injection, schedule: Q01DX005 (ip), vehicle: water
[9] = T/C endpoint: mean survival time, dose: 100.0 mg/kg/injection, schedule: Q04DX003 (ip), vehicle: saline with Tween-80
[10] = T/C endpoint: mean survival time, dose: 400.0 mg/kg/injection, schedule: Q04DX003 (ip), vehicle: saline with Tween-80
[11] = T/C endpoint: mean survival time, dose: 200.0 mg/kg/injection, schedule: Q04DX003 (ip), vehicle: saline with Tween-80

`CC1(C)C2CCC1(CS(=O)(=O)O)C(=O)C2Br.[Ag]` (stereo not drawn) was tested, and the survivor count (T/C endpoint: mean survival time, dose: 200.0 mg/kg/injection, schedule: Q04DX003 (ip), vehicle: acetone) was 3 of 6 and the survivor count [1] was 1 of 6.

For `Cc1cc(N(C)CCCl)ccc1N=Nc1ccccc1C(=O)O`, the survivor count [2] was 0 of 3, the survivor count [3] was 0 of 3 and the survivor count [4] was 0 of 3.

With `CN(C)C(=O)c1ccc(Cl)c(Cl)c1` the survivor count (T/C endpoint: mean survival time, dose: 400.0 mg/kg/injection, schedule: Q01DX009 (ip), vehicle: saline with Tween-80) was 6 of 6.

`CCCCCCCCCCCCCCC(=O)Nc1ccccc1` was tested, and the survivor count [5] was 6 of 6 and the survivor count [6] was 6 of 6.

In the case of `CC(=O)NC1=CC(=O)C(C)=CC1=O`, the survivor count (T/C endpoint: mean survival time, dose: 20.0 mg/kg/injection, schedule: Q01DX001 (ip), vehicle: saline) is reported as 3 of 6, the survivor count (T/C endpoint: mean survival time, dose: 40.0 mg/kg/injection, schedule: Q01DX001 (ip), vehicle: saline) is reported as 0 of 6 and the survivor count (T/C endpoint: mean survival time, dose: 75.0 mg/kg/injection, schedule: Q01DX001 (ip), vehicle: saline) is reported as 0 of 6. The survivor count (T/C endpoint: mean survival time, dose: 80.0 mg/kg/injection, schedule: Q01DX001 (ip), vehicle: saline) was 0 of 6, the survivor count (T/C endpoint: mean survival time, dose: 150.0 mg/kg/injection, schedule: Q01DX001 (ip), vehicle: saline) was 0 of 6 and the survivor count (T/C endpoint: mean survival time, dose: 300.0 mg/kg/injection, schedule: Q01DX001 (ip), vehicle: saline) was 0 of 6.

`COC(=O)CCC(=O)c1ccccc1C` was tested, and the survivor count [1] was 2 of 6.

In the case of `CSc1ncnc2c1ccn2C1OC(COP(=O)(O)O)C(O)C1O` (stereo not drawn), the T/C [7] is reported as 127 and 135 % of control and the survivor count [8] is reported as 0 of 6.

In the case of `O=C(NCCS)Nc1ccccc1`, the survivor count [9] is reported as 3 of 3 and the survivor count [6] is reported as 3 of 6.

For `CCCCCCCCCCCCCCCC(=O)N(CCCN)C(C)(C)CCC(C)(C)N(CCCN)C(=O)CCCCCCCCCCCCCCC`, the survivor count (T/C endpoint: mean survival time, dose: 50.0 mg/kg/injection, schedule: Q01DX009 (ip), vehicle: water) was 5 of 6, the survivor count (T/C endpoint: mean survival time, dose: 100.0 mg/kg/injection, schedule: Q01DX009 (ip), vehicle: water) was 1 of 6 and the survivor count (T/C endpoint: mean survival time, dose: 200.0 mg/kg/injection, schedule: Q01DX009 (ip), vehicle: water) was 0 of 6. For the same compound, the survivor count (T/C endpoint: mean survival time, dose: 400.0 mg/kg/injection, schedule: Q01DX009 (ip), vehicle: water) was 0 of 6.

In the case of `COc1cc(C=Nc2cc(Br)cc(Br)c2)ccc1N(CCCl)CCCl`, the T/C (T/C endpoint: mean survival time, dose: 50.0 mg/kg/injection, schedule: Q01DX001 (ip), vehicle: other) is reported as 125 % of control and the T/C (T/C endpoint: mean survival time, dose: 100.0 mg/kg/injection, schedule: Q01DX001 (ip), vehicle: other) is reported as 141 % of control.

With `NCCCNCCCCNCCCN` the survivor count (T/C endpoint: median survival time, dose: 124.0 mg/kg/injection, schedule: Q04DX003 (ip), vehicle: saline) was 0 of 4.

With `S=C1NC(/C=C/c2ccccc2)Nc2ccccc21` (stereo not drawn) the survivor count [10] was 6 of 6.

With `CCOC(=O)Oc1c(OC)cc(C(=O)O[C@@H]2C[C@@H]3CN4CCc5c([nH]c6cc(OC)ccc56)[C@H]4C[C@@H]3[C@H](C(=O)OC)[C@H]2OC)cc1OC` the survivor count (T/C endpoint: mean survival time, dose: 50.0 mg/kg/injection, schedule: Q01DX009 (ip), vehicle: saline with Tween-80) was 5 of 6, the survivor count [11] was 4 of 6 and the survivor count [10] was 3 of 6.

`CC1(C)N=C(N)N=C(N)N1c1cccc(C(C#N)CCCc2ccccc2)c1` (stereo not drawn) was tested, and the survivor count [2] was 1 of 3, the survivor count [3] was 0 of 3 and the survivor count [4] was 0 of 3.

`CCN=C(NCC)SCCSC(=NCC)NCC` was tested, and the survivor count (T/C endpoint: mean survival time, dose: 400.0 mg/kg/injection, schedule: Q04DX002 (ip), vehicle: saline with Tween-80) was 0 of 3.

`CCOc1ccc(OCC)c(NC(=O)Nc2ccccc2C)c1` was tested, and the survivor count (T/C endpoint: mean survival time, dose: 100.0 mg/kg/injection, schedule: Q04DX002 (ip), vehicle: saline with Tween-80) was 3 of 3 and the survivor count (T/C endpoint: mean survival time, dose: 200.0 mg/kg/injection, schedule: Q04DX002 (ip), vehicle: saline with Tween-80) was 3 of 3.

`COC(=O)c1ccc(-n2cc(C(=O)OC)c([N+]#N)c2[O-])cc1` was tested, and the survivor count [9] was 6 of 6.

With `O=C(N/N=C/c1ccc2c(c1)CCC2)c1ccccc1[N+](=O)[O-]` the survivor count [9] was 6 of 6.

For `CCCNC(C)(C)C(SS)c1ccc(C(F)(F)F)cc1` (stereo not drawn), the survivor count (T/C endpoint: mean survival time, dose: 100.0 mg/kg/injection, schedule: Q04DX003 (ip), vehicle: other) was 6 of 6.

In the case of `CC(=O)N(C(C)=O)c1ncc2ccccc2c1-c1ccc(N)cc1`, the survivor count [11] is reported as 0 of 4 and the survivor count [10] is reported as 0 of 4.

With `CC1=CC(=O)c2c(O)ccc(O)c2C1=O` the survivor count (T/C endpoint: mean survival time, dose: 20.0 mg/kg/injection, schedule: Q04DX003 (ip), vehicle: other) was 3 of 6, the survivor count (T/C endpoint: mean survival time, dose: 40.0 mg/kg/injection, schedule: Q04DX003 (ip), vehicle: other) was 1 of 6 and the survivor count (T/C endpoint: mean survival time, dose: 80.0 mg/kg/injection, schedule: Q04DX003 (ip), vehicle: other) was 0 of 6. For the same compound, the survivor count (T/C endpoint: mean survival time, dose: 100.0 mg/kg/injection, schedule: Q01DX001 (ip), vehicle: saline) was 3 of 6, the survivor count (T/C endpoint: mean survival time, dose: 200.0 mg/kg/injection, schedule: Q01DX001 (ip), vehicle: saline) was 3 of 6 and the survivor count (T/C endpoint: mean survival time, dose: 400.0 mg/kg/injection, schedule: Q01DX001 (ip), vehicle: saline) was 0 of 6.

In the case of `Cc1ccccc1C1(O)CCCCC1`, the survivor count [10] is reported as 3 of 6.

`CNN(C)N=Nc1ccc(C(N)=O)cc1` was tested, and the survivor count (T/C endpoint: mean survival time, dose: 79.0 mg/kg/injection, schedule: Q01DX009 (ip), vehicle: Klucel (hydroxypropylcellulose) (HPC)) was 2 of 6, the survivor count (T/C endpoint: mean survival time, dose: 118.0 mg/kg/injection, schedule: Q01DX009 (ip), vehicle: Klucel (hydroxypropylcellulose) (HPC)) was 0 of 6 and the survivor count (T/C endpoint: mean survival time, dose: 177.0 mg/kg/injection, schedule: Q01DX009 (ip), vehicle: Klucel (hydroxypropylcellulose) (HPC)) was 0 of 6. The survivor count (T/C endpoint: mean survival time, dose: 266.0 mg/kg/injection, schedule: Q01DX009 (ip), vehicle: Klucel (hydroxypropylcellulose) (HPC)) was 0 of 6 and the survivor count (T/C endpoint: mean survival time, dose: 400.0 mg/kg/injection, schedule: Q01DX009 (ip), vehicle: Klucel (hydroxypropylcellulose) (HPC)) was 0 of 6.

With `CC(C)(O)CCNc1ncnc2c1ncn2C1OC(CO)C(O)C1O` (stereo not drawn) the T/C [7] was 145 % of control, the survivor count [8] was 3 of 6 and 5 of 6 and the survivor count (T/C endpoint: mean survival time, dose: 400.0 mg/kg/injection, schedule: Q01DX005 (ip), vehicle: water) was 0 of 6.

For `c1ccc(OCCC[P+](c2ccccc2)(c2ccccc2)c2ccccc2)cc1`, the survivor count (T/C endpoint: mean survival time, dose: 40.0 mg/kg/injection, schedule: Q01DX009 (ip), vehicle: saline) was 3 of 6.

`CC(C)(C)C1CCS(=O)(=O)CC1.[Cl][Hg][Cl]` was tested, and the survivor count (T/C endpoint: mean survival time, dose: 5.0 mg/kg/injection, schedule: Q04DX003 (ip), vehicle: saline sonified) was 0 of 6, the survivor count (T/C endpoint: mean survival time, dose: 10.0 mg/kg/injection, schedule: Q04DX003 (ip), vehicle: saline sonified) was 0 of 6 and the survivor count (T/C endpoint: mean survival time, dose: 20.0 mg/kg/injection, schedule: Q04DX003 (ip), vehicle: saline sonified) was 0 of 6. For the same compound, the survivor count [9] was 0 of 6, the survivor count [11] was 0 of 6 and the survivor count [10] was 0 of 6.

`CN(C)C(=O)/C=C/c1c[nH]c(=O)[nH]c1=O` was tested, and the survivor count [5] was 1 of 6, the survivor count (T/C endpoint: mean survival time, dose: 200.0 mg/kg/injection, schedule: Q01DX001 (ip), vehicle: saline with Tween-80) was 3 of 6 and the survivor count [6] was 0 of 6.

With `O=C1NC(=O)c2ccc3c4c(ccc1c24)C(=O)NC3=O` the survivor count (T/C endpoint: mean survival time, dose: 125.0 mg/kg/injection, schedule: Q01DX009 (ip), vehicle: saline with Tween-80) was 3 of 6 and the survivor count (T/C endpoint: mean survival time, dose: 250.0 mg/kg/injection, schedule: Q01DX009 (ip), vehicle: saline with Tween-80) was 2 of 6.

`CN(Cc1ccccc1)N=Nc1ccccc1` was tested, and the survivor count (T/C endpoint: mean survival time, dose: 300.0 mg/kg/injection, schedule: Q01DX009 (ip), vehicle: Klucel (hydroxypropylcellulose) (HPC)) was 2 of 6.

With `c1ccc(-c2cc(-c3ccccc3)[o+]c(-c3ccccc3)c2)cc1` the survivor count [11] was 1 of 6 and the survivor count [10] was 0 of 6.

In the case of `O=C(Cl)N(c1ccccc1)c1ccccc1`, the survivor count [6] is reported as 1 of 3.

In the case of `Nc1ncnc2c(C3OC(CO)C(O)C3O)c[nH]c12` (stereo not drawn), the T/C (T/C endpoint: median survival time, dose: 0.2 mg/kg/injection, schedule: Q01DX005 (ip), vehicle: saline) is reported as 126 and 128 % of control.
